Results are given in words; binding and its absence hold for the method and conditions named. Some results given as binding are weak or reduced against the parent protein; the word gives no strength.
Molecular target: Roq1 (Recognition of XopQ 1)
Experiment: native gel or EMSA

binding: binds
B1: Roq1 (Recognition of XopQ 1) (receptor, UniProt A0A290U7C4)
chain: MLTSSSHHGRSYDVFLSFRGEDTRKTFVGHLFNALIEKGIHTFMDDKELKRGKSISSELMKAIGESRFAVVVFSKNYASSTWCLEELVKILEIHEKFELIVVPVFYDVDPSTVRKQNGEYAVCFTKFEANLVDDRDKVLRWREALTKVANISGHDLRNTYNGDESKCIQQILKDIFDKFCFSISITNRDLVGIESQIKKLSSLLRMDLKGVRLVGIWGMGGVGKTTAARALFNRYYQNFESACFLEDVKEYLQHHTLLYLQKTLLSKLLKVEFVDCTDTEEMCVILKRRLCSKKVLVVLDDVNHNDQLDKLVGAEDWFGSGSRIVITTRDMKLLKNHDVHETYEIKVLEKDEAIELFNLHAFKRSSPEKEFKELLNLVVDYTGGLPLALKVLGSLLYKEDLDVWISTIDRLKDNPEGEIMATLKISFDGLRDYEKSIFLDIACFFRGYNQRDMTALFHASGFHPVLGVKTLVEKSLIFILEDKIQMHDLMQEMGRQIAVQESPMRRIYRPEDVKDACIGDMRKEAIEGLLLTEPEQFEEGELEYMYSAEALKKTRRLRILVKEYYNRGFDEPVAYLPNSLLWLEWRNYSSNSFPSNFEPSKLVYLTMKGSSIIELWNGAKRLAFLTTLDLSYCHKLIQTPDFRMITNLERLILSSCDALVEVHPSVGFLKNLILLNMDHCISLERLPAIIQSECLEVLDLNYCFNLKMFPEVERNMTHLKKLDLTSTGIRELPASIEHLSSLENLQMHSCNQLVSLPSSIWRFRNLKISECEKLGSLPEIHGNSNCTRELILKLVSIKELPTSIGNLTSLNFLEICNCKTISSLSSSIWGLTSLTTLKLLDCRKLKNLPGIPNAINHLSGHGLQLLLTLEQPTIYERLDLLRIIDMSWCSCISSLPHNIWMLKFLRILCISYCSRLEYLPENLGHLEHLEELLADGTGILRLPSSVARLNKLEVLSFRKKFAIGPKVQYSSSMLNLPDDVFGSLGSLGSVVKLNLSGNGFCNLPETMNQLFCLEYLDITFCQRLEALPELPPSIKELYVDEHLALRIMEDLVIKCKELNLIAVTKIEYQNFYRWLDSIWSDVSELLENSQKQQLDDMLQLIPFSYLSTAKREEVLKIVIHGTRIPEWFRWQDRSATTMSVNLPEYWYTENFLGFAICCSCCFYHSARSYDVEFEGSMHHYNYDSSYWKEYEEPSYDFYERDSIEITAKLTPRHKGMRTEELKKVCSFSMNVLRRATAVPNMCFAFFPFNSLCHISNLQANNPNDYGIFETCLSPGDIRHRGKQWGFNLVYKDETGGSVTHEMLINR

From article doi:10.1101/2025.04.11.646618
